Measured values: the supplement of paper PMC12819154, “High-throughput peptide-centric local stability assay extends protein–ligand identification to membrane proteins, tissues and bacteria” (Nature Structural & Molecular Biology, 2025)
The other results are listed elsewhere or left out. Small differences around the control level are noise.

The chains behind the UniProt entries cited, without tags or fusion partners. Where a name states a change or a piece, a line headed by the entry shows the natural chain unless it says otherwise.
UniProt Q9CQ54: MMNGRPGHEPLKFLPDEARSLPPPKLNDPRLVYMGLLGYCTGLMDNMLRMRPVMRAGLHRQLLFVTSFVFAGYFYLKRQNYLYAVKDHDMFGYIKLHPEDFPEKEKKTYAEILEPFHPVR
UniProt Q99LD4: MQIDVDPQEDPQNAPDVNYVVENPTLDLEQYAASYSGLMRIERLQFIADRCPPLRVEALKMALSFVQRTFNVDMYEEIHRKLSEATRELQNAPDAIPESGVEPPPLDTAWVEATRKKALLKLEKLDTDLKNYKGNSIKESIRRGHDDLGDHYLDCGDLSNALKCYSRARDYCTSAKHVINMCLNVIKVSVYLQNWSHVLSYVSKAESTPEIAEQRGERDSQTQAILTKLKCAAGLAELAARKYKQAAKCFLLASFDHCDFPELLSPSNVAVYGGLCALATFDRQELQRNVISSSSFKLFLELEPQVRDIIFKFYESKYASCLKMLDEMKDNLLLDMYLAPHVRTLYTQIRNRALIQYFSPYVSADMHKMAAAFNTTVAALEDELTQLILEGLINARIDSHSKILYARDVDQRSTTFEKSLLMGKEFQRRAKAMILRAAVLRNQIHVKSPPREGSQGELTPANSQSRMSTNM
UniProt Q9CR09: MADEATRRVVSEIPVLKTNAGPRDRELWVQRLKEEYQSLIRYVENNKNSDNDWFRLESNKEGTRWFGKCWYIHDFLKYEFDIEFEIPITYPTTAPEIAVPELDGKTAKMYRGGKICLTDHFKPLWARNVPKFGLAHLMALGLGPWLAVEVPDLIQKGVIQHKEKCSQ
UniProt Q9CXA2: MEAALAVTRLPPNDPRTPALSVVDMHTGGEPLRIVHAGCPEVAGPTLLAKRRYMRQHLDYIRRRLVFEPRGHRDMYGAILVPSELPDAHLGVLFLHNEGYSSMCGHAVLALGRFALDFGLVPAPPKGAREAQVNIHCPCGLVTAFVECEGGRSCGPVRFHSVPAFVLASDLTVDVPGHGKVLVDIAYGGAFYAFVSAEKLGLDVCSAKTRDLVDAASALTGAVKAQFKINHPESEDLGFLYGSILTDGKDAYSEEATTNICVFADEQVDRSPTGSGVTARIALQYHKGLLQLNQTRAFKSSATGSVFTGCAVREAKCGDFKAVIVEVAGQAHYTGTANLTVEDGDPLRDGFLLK
UniProt Q9CW42: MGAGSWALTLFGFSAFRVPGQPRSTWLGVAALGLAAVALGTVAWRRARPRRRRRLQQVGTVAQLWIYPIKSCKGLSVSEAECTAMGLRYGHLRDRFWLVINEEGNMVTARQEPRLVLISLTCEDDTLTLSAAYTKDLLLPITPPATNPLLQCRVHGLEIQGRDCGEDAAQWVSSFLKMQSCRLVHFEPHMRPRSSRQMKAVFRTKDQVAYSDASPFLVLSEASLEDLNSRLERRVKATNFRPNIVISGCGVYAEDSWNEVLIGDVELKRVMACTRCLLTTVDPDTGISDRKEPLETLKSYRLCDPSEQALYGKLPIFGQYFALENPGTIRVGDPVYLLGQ
UniProt Q9CQG1: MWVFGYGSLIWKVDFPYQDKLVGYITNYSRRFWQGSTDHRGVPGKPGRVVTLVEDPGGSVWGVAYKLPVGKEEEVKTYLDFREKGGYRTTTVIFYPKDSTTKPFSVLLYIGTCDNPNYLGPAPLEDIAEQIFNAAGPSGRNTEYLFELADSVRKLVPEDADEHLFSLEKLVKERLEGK
UniProt Q9CR67: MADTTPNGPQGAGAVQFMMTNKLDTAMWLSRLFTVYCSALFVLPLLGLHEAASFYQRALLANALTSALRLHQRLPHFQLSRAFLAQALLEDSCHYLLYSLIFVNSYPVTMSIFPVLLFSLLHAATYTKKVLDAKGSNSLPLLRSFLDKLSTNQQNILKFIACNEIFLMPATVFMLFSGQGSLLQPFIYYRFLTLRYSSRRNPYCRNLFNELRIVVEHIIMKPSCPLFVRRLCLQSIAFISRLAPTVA
UniProt Q9CW79: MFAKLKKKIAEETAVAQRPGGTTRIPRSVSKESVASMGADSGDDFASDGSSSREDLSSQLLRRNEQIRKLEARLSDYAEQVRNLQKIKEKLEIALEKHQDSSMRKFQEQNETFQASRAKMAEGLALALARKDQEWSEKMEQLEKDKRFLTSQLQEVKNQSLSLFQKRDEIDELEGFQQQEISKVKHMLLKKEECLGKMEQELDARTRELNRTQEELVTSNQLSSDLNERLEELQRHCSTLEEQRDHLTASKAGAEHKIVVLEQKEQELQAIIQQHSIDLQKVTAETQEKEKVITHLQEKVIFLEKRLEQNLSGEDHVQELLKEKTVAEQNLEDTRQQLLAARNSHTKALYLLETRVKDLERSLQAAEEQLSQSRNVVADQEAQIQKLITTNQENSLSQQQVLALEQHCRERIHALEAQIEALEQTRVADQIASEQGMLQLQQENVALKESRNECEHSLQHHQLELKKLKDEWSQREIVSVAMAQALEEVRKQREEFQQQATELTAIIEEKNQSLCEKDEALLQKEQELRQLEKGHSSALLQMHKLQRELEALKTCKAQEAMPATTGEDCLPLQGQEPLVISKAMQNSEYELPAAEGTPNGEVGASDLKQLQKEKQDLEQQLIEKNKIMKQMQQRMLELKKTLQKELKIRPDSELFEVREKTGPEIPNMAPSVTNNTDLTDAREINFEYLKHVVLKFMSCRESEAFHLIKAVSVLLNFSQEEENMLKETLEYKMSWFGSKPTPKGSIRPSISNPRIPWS
UniProt Q9CQQ8: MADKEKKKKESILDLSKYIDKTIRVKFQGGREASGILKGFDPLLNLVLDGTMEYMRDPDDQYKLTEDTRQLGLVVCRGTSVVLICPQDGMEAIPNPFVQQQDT
UniProt Q9CQM9: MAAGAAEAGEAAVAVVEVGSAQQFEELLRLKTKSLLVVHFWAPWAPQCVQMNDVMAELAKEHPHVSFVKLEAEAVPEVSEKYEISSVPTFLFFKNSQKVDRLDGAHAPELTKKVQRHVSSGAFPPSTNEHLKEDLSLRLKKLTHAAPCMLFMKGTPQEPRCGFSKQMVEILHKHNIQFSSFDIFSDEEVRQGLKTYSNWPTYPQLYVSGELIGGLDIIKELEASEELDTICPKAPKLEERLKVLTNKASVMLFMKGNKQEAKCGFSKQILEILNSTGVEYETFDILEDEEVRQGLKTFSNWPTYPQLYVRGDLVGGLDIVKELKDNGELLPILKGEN
UniProt Q9CRA9: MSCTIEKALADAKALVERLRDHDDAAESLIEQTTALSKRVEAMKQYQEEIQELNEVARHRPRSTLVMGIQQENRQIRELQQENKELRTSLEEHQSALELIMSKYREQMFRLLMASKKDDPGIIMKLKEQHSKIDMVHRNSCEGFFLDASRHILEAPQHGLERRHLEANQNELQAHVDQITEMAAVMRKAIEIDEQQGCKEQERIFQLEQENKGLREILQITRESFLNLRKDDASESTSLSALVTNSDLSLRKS
UniProt Q99NH0: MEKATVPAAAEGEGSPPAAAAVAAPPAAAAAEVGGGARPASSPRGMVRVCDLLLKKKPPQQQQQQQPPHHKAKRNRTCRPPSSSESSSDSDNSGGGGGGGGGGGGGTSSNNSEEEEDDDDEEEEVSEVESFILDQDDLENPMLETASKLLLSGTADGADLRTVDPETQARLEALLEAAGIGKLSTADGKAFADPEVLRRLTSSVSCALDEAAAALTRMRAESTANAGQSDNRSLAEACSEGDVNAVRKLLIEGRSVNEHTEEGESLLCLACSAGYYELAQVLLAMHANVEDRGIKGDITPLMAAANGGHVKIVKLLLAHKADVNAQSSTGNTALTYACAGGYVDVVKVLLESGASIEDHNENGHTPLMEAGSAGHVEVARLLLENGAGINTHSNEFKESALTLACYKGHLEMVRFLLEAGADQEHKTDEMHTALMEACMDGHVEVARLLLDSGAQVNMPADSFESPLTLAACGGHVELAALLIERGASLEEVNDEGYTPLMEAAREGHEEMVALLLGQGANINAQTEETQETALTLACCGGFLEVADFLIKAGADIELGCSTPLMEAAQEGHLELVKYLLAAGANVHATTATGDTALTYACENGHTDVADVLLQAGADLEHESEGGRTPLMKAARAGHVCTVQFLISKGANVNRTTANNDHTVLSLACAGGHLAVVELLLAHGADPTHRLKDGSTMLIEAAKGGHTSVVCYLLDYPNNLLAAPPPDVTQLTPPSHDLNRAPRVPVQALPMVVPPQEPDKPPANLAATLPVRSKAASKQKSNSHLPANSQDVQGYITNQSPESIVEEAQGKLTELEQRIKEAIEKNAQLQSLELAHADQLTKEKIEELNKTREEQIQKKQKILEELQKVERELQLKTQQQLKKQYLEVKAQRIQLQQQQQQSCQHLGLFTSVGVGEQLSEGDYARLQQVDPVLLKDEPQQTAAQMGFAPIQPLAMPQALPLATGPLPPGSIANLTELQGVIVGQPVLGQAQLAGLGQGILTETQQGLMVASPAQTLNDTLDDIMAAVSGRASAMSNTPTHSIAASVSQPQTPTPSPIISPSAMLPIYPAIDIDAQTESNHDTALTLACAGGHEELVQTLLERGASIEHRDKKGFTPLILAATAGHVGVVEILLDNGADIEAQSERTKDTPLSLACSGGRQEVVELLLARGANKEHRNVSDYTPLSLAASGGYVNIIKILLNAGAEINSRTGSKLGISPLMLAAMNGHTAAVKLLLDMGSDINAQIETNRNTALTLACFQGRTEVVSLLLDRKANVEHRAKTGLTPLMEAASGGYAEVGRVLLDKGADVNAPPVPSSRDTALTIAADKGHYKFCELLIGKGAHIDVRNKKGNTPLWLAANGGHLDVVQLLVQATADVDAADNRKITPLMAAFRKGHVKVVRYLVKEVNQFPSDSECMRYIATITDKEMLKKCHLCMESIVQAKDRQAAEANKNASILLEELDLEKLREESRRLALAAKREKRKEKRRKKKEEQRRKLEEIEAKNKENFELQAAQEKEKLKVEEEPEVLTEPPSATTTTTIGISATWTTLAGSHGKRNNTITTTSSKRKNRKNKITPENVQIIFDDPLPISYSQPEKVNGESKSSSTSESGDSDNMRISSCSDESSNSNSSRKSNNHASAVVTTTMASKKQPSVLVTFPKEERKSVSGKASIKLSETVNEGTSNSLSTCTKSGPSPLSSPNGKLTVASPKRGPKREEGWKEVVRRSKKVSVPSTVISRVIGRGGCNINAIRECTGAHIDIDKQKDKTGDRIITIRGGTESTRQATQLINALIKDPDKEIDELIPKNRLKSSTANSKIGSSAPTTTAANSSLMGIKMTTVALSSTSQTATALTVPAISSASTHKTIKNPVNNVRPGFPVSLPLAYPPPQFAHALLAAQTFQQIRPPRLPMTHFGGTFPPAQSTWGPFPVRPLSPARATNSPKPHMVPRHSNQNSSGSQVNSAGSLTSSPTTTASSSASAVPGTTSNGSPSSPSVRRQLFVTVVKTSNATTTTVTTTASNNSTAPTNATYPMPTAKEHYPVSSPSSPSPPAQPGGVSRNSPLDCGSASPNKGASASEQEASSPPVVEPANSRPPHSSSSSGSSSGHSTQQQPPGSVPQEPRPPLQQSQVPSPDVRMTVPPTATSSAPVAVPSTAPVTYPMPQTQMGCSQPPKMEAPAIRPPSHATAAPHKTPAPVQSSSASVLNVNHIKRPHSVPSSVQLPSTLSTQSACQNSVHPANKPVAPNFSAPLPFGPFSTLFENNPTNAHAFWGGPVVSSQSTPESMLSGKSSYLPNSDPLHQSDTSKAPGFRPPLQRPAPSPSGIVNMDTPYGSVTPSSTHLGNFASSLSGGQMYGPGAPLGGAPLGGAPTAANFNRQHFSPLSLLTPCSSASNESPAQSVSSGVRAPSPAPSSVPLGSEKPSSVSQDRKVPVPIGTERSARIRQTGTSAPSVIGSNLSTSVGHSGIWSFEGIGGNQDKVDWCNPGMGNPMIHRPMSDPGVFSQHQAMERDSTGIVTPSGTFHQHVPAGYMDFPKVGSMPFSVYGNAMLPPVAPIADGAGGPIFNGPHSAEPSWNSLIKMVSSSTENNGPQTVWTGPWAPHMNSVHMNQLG
UniProt Q99L85: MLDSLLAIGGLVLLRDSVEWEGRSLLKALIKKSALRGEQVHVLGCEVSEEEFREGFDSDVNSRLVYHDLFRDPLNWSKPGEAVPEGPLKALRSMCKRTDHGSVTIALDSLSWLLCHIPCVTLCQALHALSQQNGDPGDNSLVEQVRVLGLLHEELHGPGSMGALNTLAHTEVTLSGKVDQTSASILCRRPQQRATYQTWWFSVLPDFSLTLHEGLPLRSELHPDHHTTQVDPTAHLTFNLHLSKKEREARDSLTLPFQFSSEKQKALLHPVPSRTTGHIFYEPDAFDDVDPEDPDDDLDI
UniProt Q99LC3: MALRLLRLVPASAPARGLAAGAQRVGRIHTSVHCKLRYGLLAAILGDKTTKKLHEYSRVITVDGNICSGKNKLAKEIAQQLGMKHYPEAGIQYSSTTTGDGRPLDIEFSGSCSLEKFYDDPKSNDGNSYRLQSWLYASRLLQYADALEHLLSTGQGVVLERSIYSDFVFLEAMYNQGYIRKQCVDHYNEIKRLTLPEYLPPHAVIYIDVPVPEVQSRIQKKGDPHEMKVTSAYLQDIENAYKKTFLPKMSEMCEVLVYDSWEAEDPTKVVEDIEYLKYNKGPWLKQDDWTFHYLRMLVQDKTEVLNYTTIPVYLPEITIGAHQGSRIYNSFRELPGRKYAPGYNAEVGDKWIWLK

compound: CN[C@@H]1C[C@H]2O[C@@](C)([C@@H]1OC)n1c3ccccc3c3c4c(c5c6ccccc6n2c5c31)C(=O)NC4 [staurosporine]; assay: log2 fold change of pooled soluble protein (PISA), ligand vs vehicle (log2 ratio); higher = more thermally stabilized; conditions: ligand concentration: 20 uM; assay format: PISA pool 52.9/55.5/58.6 C

Row | Target | log2 fold change of pooled soluble protein
1 | UniProt Q9CXJ4 | -0.0664
2 | UniProt Q99PE8 | 0.252
3 | UniProt Q9CQ54 | -0.0503
4 | UniProt Q99LD4 | -0.0191
5 | UniProt Q9CQC9 | -0.266
6 | UniProt Q9CR09 | -0.0221
7 | UniProt Q99KR7 | 0.127
8 | UniProt Q9CXA2 | -0.0604
9 | UniProt Q9CQF9 | -0.167
10 | UniProt Q9CW42 | 0.293
11 | UniProt Q99MR6 | 0.0647
12 | UniProt Q99L04 | -0.163
13 | UniProt Q9CQG1 | 0.0509
14 | UniProt Q9CR67 | -0.0346
15 | UniProt Q9CQR2 | -0.0561
16 | UniProt Q9CQ86 | 0.133
17 | UniProt Q9CX34 | -0.294
18 | UniProt Q99KI0 | -0.00589

Row | Target | log2 fold change of pooled soluble protein
19 | UniProt Q99K74 | 0.0391
20 | UniProt Q9CQ91 | 0.044
21 | UniProt Q9CWK3 | 0.0749
22 | UniProt Q9CQ73 | 0.0603
23 | UniProt Q9CR59 | -0.119
24 | UniProt Q9CW79 | 0.244
25 | UniProt Q99LX0 | -0.0636
26 | UniProt Q99JR1 | -0.12
27 | UniProt Q99KN2 | 0.104
28 | UniProt Q9CPU0 | -0.0857
29 | UniProt Q9CQQ8 | -0.0621
30 | UniProt Q99P27 | -0.026
31 | UniProt Q9CQM9 | -0.0948
32 | UniProt Q9CRA9 | 0.334
33 | UniProt Q9CQE8 | -0.0711
34 | UniProt Q99NH0 | -0.103
35 | UniProt Q99L85 | 0.194
36 | UniProt Q99LC3 | -0.0524

2 records drawn at random from the list so far, as already listed:
Row | Target | log2 fold change of pooled soluble protein
28 | UniProt Q9CPU0 | -0.0857
29 | UniProt Q9CQQ8 | -0.0621
